Assay results reported in patent US12491217B2, “Compositions and methods for promoting healthy neural development in an unborn baby” (The Regents of the University of California, priority 2019, dated 2025).

Assay: Metabolomics of fetal brain at E14.5
Format: in vivo, C57Bl/6J mice
Conditions: metabolite level in E14.5 fetal brain; for fold of change ABX/SPF: ANOVA contrast ABX/SPF; for fold of change GF/ABX: ANOVA contrast GF/ABX; for fold of change GF/SPF: ANOVA contrast GF/SPF; for fold of change GF/Sp: ANOVA contrast GF/Sp; for fold of change Sp/ABX: ANOVA contrast Sp/ABX; for fold of change Sp/SPF: ANOVA contrast Sp/SPF

Row | Structure (SMILES) | fold of change ABX/SPF | fold of change GF/ABX | fold of change GF/SPF | fold of change GF/Sp | fold of change Sp/ABX | fold of change Sp/SPF
1 | CSC[C@H](NC(=O)CC[C@H](N)C(=O)O)C(=O)NCC(=O)O [compound 446] | 0.82 | 1.03 | 0.84 | 1.10 | 0.94 | 0.77
2 | CC(O)C(=O)SC[C@H](NC(=O)CC[C@H](N)C(=O)O)C(=O)NCC(=O)O (stereo partly drawn) [compound 447] | 1.50 | 0.31 | 0.46 | 0.70 | 0.44 | 0.66
3 | O=C1CC[C@@H](C(=O)O)N1 [compound 451] | 0.65 | 0.97 | 0.63 | 0.86 | 1.13 | 0.74
4 | CC[C@H](NC(=O)CC[C@H](N)C(=O)O)C(=O)NCC(=O)O [compound 456] (γGlu-[Abu]-Gly-OH) | 0.72 | 1.29 | 0.92 | 1.66 | 0.77 | 0.56
5 | CC(C)(COP(=O)(O)OP(=O)(O)OC[C@H]1O[C@@H](n2cnc3c(N)ncnc32)[C@H](O)[C@@H]1O)[C@@H](O)C(=O)NCCC(=O)NCCSSC[C@H](NC(=O)CC[C@H](N)C(=O)O)C(=O)NCC(=O)O [compound 460] | 0.89 | 0.82 | 0.72 | 0.77 | 1.06 | 0.94
6 | CC(C)(COP(=O)(O)OP(=O)(O)OC[C@H]1O[C@@H](n2cnc3c(N)ncnc32)[C@H](O)[C@@H]1OP(=O)(O)O)[C@@H](O)C(=O)NCCC(=O)NCCSSC[C@H](NC(=O)CC[C@H](N)C(=O)O)C(=O)NCC(=O)O [compound 461] | 1.14 | 0.90 | 1.02 | 1.12 | 0.80 | 0.91
7 | C[C@H](NC(=O)CC[C@H](N)C(=O)O)C(=O)O [compound 465] | 0.81 | 0.78 | 0.63 | 1.32 | 0.59 | 0.48
8 | N[C@@H](CCC(=O)N[C@@H](CCC(=O)O)C(=O)O)C(=O)O [compound 467] | 0.77 | 0.73 | 0.56 | 0.94 | 0.78 | 0.60
9 | NC(=O)CC[C@H](NC(=O)CC[C@H](N)C(=O)O)C(=O)O [compound 468] | 0.78 | 0.76 | 0.59 | 0.88 | 0.86 | 0.67
10 | N[C@@H](CCC(=O)NCC(=O)O)C(=O)O [compound 469] | 0.79 | 0.84 | 0.66 | 1.25 | 0.67 | 0.53
11 | CC[C@H](C)[C@H](NC(=O)CC[C@H](N)C(=O)O)C(=O)O [compound 471] | 0.89 | 0.84 | 0.75 | 0.83 | 1.01 | 0.91
12 | CC(C)C[C@H](NC(=O)CC[C@H](N)C(=O)O)C(=O)O [compound 472] | 0.81 | 1.04 | 0.84 | 0.97 | 1.07 | 0.86
13 | NCCCC[C@H](NC(=O)CC[C@H](N)C(=O)O)C(=O)O [compound 473] | 0.79 | 1.40 | 1.11 | 1.18 | 1.19 | 0.94
14 | N[C@@H](CCCCNC(=O)CC[C@H](N)C(=O)O)C(=O)O [compound 474] | 0.66 | 1.14 | 0.75 | 0.97 | 1.18 | 0.78
15 | CSCC[C@H](NC(=O)CC[C@H](N)C(=O)O)C(=O)O [compound 475] | 0.82 | 0.72 | 0.60 | 0.98 | 0.74 | 0.61
16 | N[C@@H](CCC(=O)N[C@@H](Cc1ccccc1)C(=O)O)C(=O)O [compound 476] | 0.81 | 1.06 | 0.86 | 0.85 | 1.25 | 1.01
17 | C[C@@H](O)[C@H](NC(=O)CC[C@H](N)C(=O)O)C(=O)O [compound 477] | 0.74 | 1.04 | 0.77 | 1.04 | 1.00 | 0.74

Row | Structure (SMILES) | fold of change ABX/SPF | fold of change GF/ABX | fold of change GF/SPF | fold of change GF/Sp | fold of change Sp/ABX | fold of change Sp/SPF
18 | N[C@@H](CCC(=O)N[C@@H](Cc1c[nH]c2ccccc12)C(=O)O)C(=O)O [compound 478] | 0.73 | 0.80 | 0.58 | 1.03 | 0.77 | 0.57
19 | N[C@@H](CCC(=O)N[C@@H](Cc1ccc(O)cc1)C(=O)O)C(=O)O [compound 479] | 0.66 | 0.95 | 0.63 | 0.72 | 1.33 | 0.87
20 | CC(C)[C@H](NC(=O)CC[C@H](N)C(=O)O)C(=O)O [compound 480] | 0.88 | 0.97 | 0.86 | 0.96 | 1.02 | 0.90
21 | O=C(O)CNC(=O)[C@@H]1CCCN1 [compound 756] (H-Pro-Gly-OH) | 0.74 | 1.09 | 0.81 | 0.90 | 1.21 | 0.90
22 | O=C(O)CNC(=O)Cc1ccccc1 [compound 929] | 0.45 | 1.00 | 0.45 | 0.56 | 1.79 | 0.80
23 | OC[C@H]1OC[C@H](O)[C@@H](O)[C@@H]1O [compound 955] | 0.80 | 2.54 | 2.04 | 3.85 | 0.66 | 0.53
24 | OC[C@H]1OC(O)[C@H](O)[C@@H](O)[C@@H]1O (stereo partly drawn) [compound 958] | 0.58 | 5.42 | 3.16 | 4.51 | 1.20 | 0.70
25 | O=C[C@H](O)[C@@H](O)[C@H](O)[C@H](O)COP(=O)(O)O [compound 959] | 0.55 | 1.34 | 0.74 | 0.95 | 1.41 | 0.77
26 | O=C(CO)COP(=O)(O)O [compound 967] | 0.70 | 0.99 | 0.69 | 0.93 | 1.07 | 0.74
27 | O=C(O)C(O)COP(=O)(O)O (stereo not drawn) [compound 972] | 0.85 | 1.26 | 1.07 | 1.08 | 1.17 | 0.99
28 | C=C(OP(=O)(O)O)C(=O)O [compound 973] | 0.87 | 1.32 | 1.14 | 1.15 | 1.15 | 0.99
29 | CC(=O)C(=O)O [compound 974] | 0.76 | 1.15 | 0.87 | 1.06 | 1.08 | 0.82
30 | CC(O)C(=O)O (stereo not drawn) [compound 975] | 0.73 | 1.07 | 0.78 | 1.02 | 1.05 | 0.77
31 | O=C(O)C(O)CO (stereo not drawn) [compound 978] | 0.61 | 1.87 | 1.14 | 1.03 | 1.81 | 1.10
32 | O=C(O)[C@H](O)[C@@H](O)[C@H](O)[C@H](O)COP(=O)(O)O [compound 981] | 0.60 | 1.87 | 1.12 | 0.66 | 2.81 | 1.68
33 | O=C(CO)[C@H](O)[C@H](O)COP(=O)(O)O [compound 982] | 0.47 | 1.66 | 0.79 | 0.99 | 1.69 | 0.80

*1 amine or outer side, *2 acyl side, *3 side chain or, on linkers, in order; H or OH if unused. Where a SMILES comes first, the peptide text is derived from it. [ ]: non-standard residue; d: D form. γGlu = O=C(O)[C@H](CCC(=O)[*:2])N[*:1]; Abu = CC[C@H](N)C(=O)O
